The values below come from PMC6770856.

Amino acid sequences for entries named in this document (tags omitted). Residues count along the entry.
UniProt Q6Z156, residues 242-388: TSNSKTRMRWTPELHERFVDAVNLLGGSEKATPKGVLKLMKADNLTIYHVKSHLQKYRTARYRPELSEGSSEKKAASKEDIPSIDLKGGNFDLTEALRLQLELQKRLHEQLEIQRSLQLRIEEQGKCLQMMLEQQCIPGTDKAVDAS

Substrate in assay [1]: C terminus of OsPHR2 containing MYB-CC domains (242-388 aa, PHR-147) (rice) (UniProt Q6Z156)
The assay can be described thus: two-hybrid; Y2H assay in yeast; vectors, media and orientation not told in the text (Figures S2 and S4).

Another assay has as its target T1, PIF1 (Arabidopsis) (UniProt Q8GZM7).
T1 sequence: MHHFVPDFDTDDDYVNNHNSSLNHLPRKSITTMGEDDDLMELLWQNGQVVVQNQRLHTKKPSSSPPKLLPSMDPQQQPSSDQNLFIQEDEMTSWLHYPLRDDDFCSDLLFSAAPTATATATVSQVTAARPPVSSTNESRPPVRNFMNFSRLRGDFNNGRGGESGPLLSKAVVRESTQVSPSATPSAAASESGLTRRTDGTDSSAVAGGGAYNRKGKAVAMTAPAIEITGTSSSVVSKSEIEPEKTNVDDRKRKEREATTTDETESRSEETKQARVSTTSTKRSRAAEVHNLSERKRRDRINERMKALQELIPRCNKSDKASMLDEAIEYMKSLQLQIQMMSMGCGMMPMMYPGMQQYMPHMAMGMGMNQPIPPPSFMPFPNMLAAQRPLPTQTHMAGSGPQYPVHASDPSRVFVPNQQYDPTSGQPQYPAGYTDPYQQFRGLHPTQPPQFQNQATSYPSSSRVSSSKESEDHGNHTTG
The description is as above.

No constants are given. Whether binding was seen depends on the method and setting. Some binding calls cover weakened binding; strength is not graded here.

B1: OsSPX4 (protein, UniProt Q10B79 1-320)
chain: MKFGKDFRSHLEETLPAWRDKYLAYKSLKKLIKNLPPDGDPPPVAAAAEVPAGDGDGDGGIALGNWFARVLDMELQKLNDFYIEREEWYVIRLQVLKERIERVKAKKNGAFTSKSEFTEEMLEIRKAFVIIHGEMILLQTYSSLNFAGLVKILKKYDKRTGGLLSLPFTQRARHQPFFTTEPLTRLVRECEANLELLFPIEAEVLESASSSAKLQPQNDDAASHDPASSVDVETSDVYRSTLAAMKAIQGLRKASSTYNPLSLARFFHGEDGEACSGAITSESDSYSDSQIEDAEDDDKEVQSREQNTAQNAAEGQPRDE
For the molecule B1, the binding result was “binds weakly” in assay [1] and “no binding” with PIF1 (Arabidopsis).

B2: HFR1 (protein, UniProt Q9FE22 1-292)
chain: MSNNQAFMELGWRNDVGSLAVKDQGMMSERARSDEDRLINGLKWGYGYFDHDQTDNYLQIVPEIHKEVENAKEDLLVVVPDEHSETDDHHHIKDFSERSDHRFYLRNKHENPKKRRIQVLSSDDESEEFTREVPSVTRKGSKRRRRDEKMSNKMRKLQQLVPNCHKTDKVSVLDKTIEYMKNLQLQLQMMSTVGVNPYFLPATLGFGMHNHMLTAMASAHGLNPANHMMPSPLIPALNWPLPPFTNISFPHSSSQSLFLTTSSPASSPQSLHGLVPYFPSFLDFSSHAMRRL
For B2, the binding entry is reported as “no binding” in assay [1] and “binds” with PIF1 (Arabidopsis).
